Assay [1] deals with T1, StrepII-tagged Mpe1 (S. cerevisiae) (UniProt P35728).
T1 sequence: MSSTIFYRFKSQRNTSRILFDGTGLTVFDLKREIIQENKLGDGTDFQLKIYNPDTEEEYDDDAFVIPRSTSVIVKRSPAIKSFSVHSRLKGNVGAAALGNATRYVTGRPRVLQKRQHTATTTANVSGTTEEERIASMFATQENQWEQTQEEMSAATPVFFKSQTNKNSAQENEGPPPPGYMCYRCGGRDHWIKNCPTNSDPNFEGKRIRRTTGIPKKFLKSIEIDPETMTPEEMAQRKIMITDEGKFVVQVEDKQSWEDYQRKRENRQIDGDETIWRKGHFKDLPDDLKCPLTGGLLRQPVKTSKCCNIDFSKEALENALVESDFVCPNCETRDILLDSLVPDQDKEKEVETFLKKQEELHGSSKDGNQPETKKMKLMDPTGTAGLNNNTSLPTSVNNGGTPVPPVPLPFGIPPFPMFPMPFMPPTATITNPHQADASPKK
The experiment in a line: pull-down.

The chains behind the UniProt entries cited, without tags or fusion partners. Where a name states a change or a piece, a line headed by the entry shows the natural chain unless it says otherwise.
UniProt Q01329: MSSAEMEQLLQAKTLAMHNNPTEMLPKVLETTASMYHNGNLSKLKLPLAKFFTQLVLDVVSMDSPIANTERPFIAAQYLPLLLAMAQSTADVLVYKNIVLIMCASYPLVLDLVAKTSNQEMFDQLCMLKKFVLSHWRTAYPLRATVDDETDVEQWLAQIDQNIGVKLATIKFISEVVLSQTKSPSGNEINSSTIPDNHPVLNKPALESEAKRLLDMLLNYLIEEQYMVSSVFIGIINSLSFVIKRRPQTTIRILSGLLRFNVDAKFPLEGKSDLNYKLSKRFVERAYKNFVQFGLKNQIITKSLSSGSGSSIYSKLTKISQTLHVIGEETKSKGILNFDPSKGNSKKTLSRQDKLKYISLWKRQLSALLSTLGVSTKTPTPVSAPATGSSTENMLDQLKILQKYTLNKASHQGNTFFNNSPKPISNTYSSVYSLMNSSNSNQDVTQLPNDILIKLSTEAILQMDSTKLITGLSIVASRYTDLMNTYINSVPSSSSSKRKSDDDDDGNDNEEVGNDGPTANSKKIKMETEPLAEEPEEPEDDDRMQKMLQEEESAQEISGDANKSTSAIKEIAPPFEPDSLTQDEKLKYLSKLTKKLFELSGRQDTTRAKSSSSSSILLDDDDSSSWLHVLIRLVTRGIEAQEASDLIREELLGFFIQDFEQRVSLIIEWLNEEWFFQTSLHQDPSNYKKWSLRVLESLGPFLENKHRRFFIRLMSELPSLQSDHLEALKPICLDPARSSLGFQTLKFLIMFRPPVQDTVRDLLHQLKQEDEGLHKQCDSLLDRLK

Assay [2] addresses phosphatase module of CPF (Pta1, Pti1, Ssu72, Ref2-SII, Swd2, Glc7) (S. cerevisiae) (UniProt Q01329). As to the kind of experiment: pull-down.
Assay [3] deals with polymerase module-Cft2 complex (S. cerevisiae) (UniProt Q06632). As to the kind of experiment: pull-down.
For assay [4], the target named is T1, StrepII-tagged Mpe1 (S. cerevisiae). The experiment in a line: cross-linking.

These are yes or no findings as the source states them, for the method shown. For some assays here: Binding seen in cells or lysates may run through a third protein. Some results given as binding are weak or reduced against the parent protein; the word gives no strength. Where a sequence is shown, tags or fusion partners need not be part of it.

B1: Cft1 (protein, UniProt Q06632 1-1357)
chain: MNVYDDVLDATVVSHSLATHFTTSDYEELLVVRTNILSVYRPTRDGKLYLTDEFKFHGLITDIGLIPQKDSPLSCLLLCTGVAKISILKFNTLTNSIDTLSLHYYEGKFKGKSLVELAKISTLRMDPGSSCALLFNNDIIAFLPFHVNKNDDDEEEEDEDENIDDSELIHSMNQKSQGTNTFNKRKRTKLGDKFTAPSVVLVASELYEGAKNIIDIQFLKNFTKPTIALLYQPKLVWAGNTTISKLPTQYVILTLNIQPAESATKIESTTIAFVKELPWDLHTIVPVSNGAIIVGTNELAFLDNTGVLQSTVLLNSFADKELQKTKIINNSSLEIMFREKNTTSIWIPSSKSKNGGSNNDETLLLMDLKSNIYYIQMEAEGRLLIKFDIFKLPIVNDLLKENSNPKCITRLNATNSNKNMDLFIGFGSGNALVLRLNNLKSTIETREAHNPSSGTNSLMDINDDDDEEMDDLYADEAPENGLTTNDSKGTVETVQPFDIELLSSLRNVGPITSLTVGKVSSIDDVVKGLPNPNKNEYSLVATSGNGSGSHLTVIQTSVQPEIELALKFISITQIWNLKIKGRDRYLITTDSTKSRSDIYESDNNFKLHKGGRLRRDATTVYISMFGEEKRIIQVTTNHLYLYDTHFRRLTTIKFDYEVIHVSVMDPYILVTVSRGDIKIFELEEKNKRKLLKVDLPEILNEMVITSGLILKSNMCNEFLIGLSKSQEEQLLFTFVTADNQIIFFTKDHNDRIFQLNGVDQLNESLYISTYQLGDEIVPDPSIKQVMINKLGHDNKEEYLTILTFGGEIYQYRKLPQRRSRFYRNVTRNDLAITGAPDNAYAKGVSSIERIMHYFPDYNGYSVIFVTGSVPYILIKEDDSTPKIFKFGNIPLVSVTPWSERSVMCVDDIKNARVYTLTTDNMYYGNKLPLKQIKISNVLDDYKTLQKLVYHERAQLFLVSYCKRVPYEALGEDGEKVIGYDENVPHAEGFQSGILLINPKSWKVIDKIDFPKNSVVNEMRSSMIQINSKTKRKREYIIAGVANATTEDTPPTGAFHIYDVIEVVPEPGKPDTNYKLKEIFQEEVSGTVSTVCEVSGRFMISQSQKVLVRDIQEDNSVIPVAFLDIPVFVTDSKSFGNLLIIGDAMQGFQFIGFDAEPYRMISLGRSMSKFQTMSLEFLVNGGDMYFAATDADRNVHVLKYAPDEPNSLSGQRLVHCSSFTLHSTNSCMMLLPRNEEFGSPQVPSFQNVGGQVDGSVFKIVPLSEEKYRRLYVIQQQIIDRELQLGGLNPRMERLANDFYQMGHSMRPMLDFNVIRRFCGLAIDRRKSIAQKAGRHAHFEAWRDIINIEFSMRSLCQGK
B1: the binding entry in assay [1] is given as “binds”.

B2: Ysh1, untagged (enzyme, UniProt Q06224 1-779)
chain: MERTNTTTFKFFSLGGSNEVGRSCHILQYKGKTVMLDAGIHPAYQGLASLPFYDEFDLSKVDILLISHFHLDHAASLPYVMQRTNFQGRVFMTHPTKAIYRWLLRDFVRVTSIGSSSSSMGTKDEGLFSDEDLVDSFDKIETVDYHSTVDVNGIKFTAFHAGHVLGAAMFQIEIAGLRVLFTGDYSREVDRHLNSAEVPPLSSNVLIVESTFGTATHEPRLNRERKLTQLIHSTVMRGGRVLLPVFALGRAQEIMLILDEYWSQHADELGGGQVPIFYASNLAKKCMSVFQTYVNMMNDDIRKKFRDSQTNPFIFKNISYLRNLEDFQDFGPSVMLASPGMLQSGLSRDLLERWCPEDKNLVLITGYSIEGTMAKFIMLEPDTIPSINNPEITIPRRCQVEEISFAAHVDFQENLEFIEKISAPNIILVHGEANPMGRLKSALLSNFASLKGTDNEVHVFNPRNCVEVDLEFQGVKVAKAVGNIVNEIYKEENVEIKEEIAAKIEPIKEENEDNLDSQAEKGLVDEEEHKDIVVSGILVSDDKNFELDFLSLSDLREHHPDLSTTILRERQSVRVNCKKELIYWHILQMFGEAEVLQDDDRVTNQEPKVKEESKDNLTNTGKLILQIMGDIKLTIVNTLAVVEWTQDLMNDTVADSIIAILMNVDSAPASVKLSSHSCDDHDHNNVQSNAQGKIDEVERVKQISRLFKEQFGDCFTLFLNKDEYASNKEETITGVVTIGKSTAKIDFNNMKILECNSNPLKGRVESLLNIGGNLVTPLC
With B2, the binding result in assay [2] is recorded as “binds”; in assay [3] it was “no binding”.

B3: Cft2(S), residues 1-720 (domain or fragment, S. cerevisiae, UniProt Q12102 1-720, looked up)
chain: MTYKYNCCDDGSGTTVGSVVRFDNVTLLIDPGWNPSKVSYEQCIKYWEKVIPEIDVIILSQPTIECLGAHSLLYYNFTSHFISRIQVYATLPVINLGRVSTIDSYASAGVIGPYDTNKLDLEDIEISFDHIVPLKYSQLVDLRSRYDGLTLLAYNAGVCPGGSIWCISTYSEKLVYAKRWNHTRDNILNAASILDATGKPLSTLMRPSAIITTLDRFGSSQPFKKRSKIFKDTLKKGLSSDGSVIIPVDMSGKFLDLFTQVHELLFESTKINAHTQVPVLILSYARGRTLTYAKSMLEWLSPSLLKTWENRNNTSPFEIGSRIKIIAPNELSKYPGSKICFVSEVGALINEVIIKVGNSEKTTLILTKPSFECASSLDKILEIVEQDERNWKTFPEDGKSFLCDNYISIDTIKEEPLSKEETEAFKVQLKEKKRDRNKKILLVKRESKKLANGNAIIDDTNGERAMRNQDILVENVNGVPPIDHIMGGDEDDDEEEENDNLLNLLKDNSEKSAAKKNTEVPVDIIIQPSAASKHKMFPFNPAKIKKDDYGTVVDFTMFLPDDSDNVNQNSRKRPLKDGAKTTSPVNEEDNKNEEEDGYNMSDPISKRSKHRASRYSGFSGTGEAENFDNLDYLKIDKTLSKRTISTVNVQLKCSVVILNLQSLVDQRSASIIWPSLKSRKIVLSAPKQIQNEEITAKLIKKNIEVVNMPLNKIVEFSTTI
With B3, the binding entry in assay [4] is “no binding”.

B4: Cft2, full length, untagged (protein, UniProt Q12102 1-859)
chain: MTYKYNCCDDGSGTTVGSVVRFDNVTLLIDPGWNPSKVSYEQCIKYWEKVIPEIDVIILSQPTIECLGAHSLLYYNFTSHFISRIQVYATLPVINLGRVSTIDSYASAGVIGPYDTNKLDLEDIEISFDHIVPLKYSQLVDLRSRYDGLTLLAYNAGVCPGGSIWCISTYSEKLVYAKRWNHTRDNILNAASILDATGKPLSTLMRPSAIITTLDRFGSSQPFKKRSKIFKDTLKKGLSSDGSVIIPVDMSGKFLDLFTQVHELLFESTKINAHTQVPVLILSYARGRTLTYAKSMLEWLSPSLLKTWENRNNTSPFEIGSRIKIIAPNELSKYPGSKICFVSEVGALINEVIIKVGNSEKTTLILTKPSFECASSLDKILEIVEQDERNWKTFPEDGKSFLCDNYISIDTIKEEPLSKEETEAFKVQLKEKKRDRNKKILLVKRESKKLANGNAIIDDTNGERAMRNQDILVENVNGVPPIDHIMGGDEDDDEEEENDNLLNLLKDNSEKSAAKKNTEVPVDIIIQPSAASKHKMFPFNPAKIKKDDYGTVVDFTMFLPDDSDNVNQNSRKRPLKDGAKTTSPVNEEDNKNEEEDGYNMSDPISKRSKHRASRYSGFSGTGEAENFDNLDYLKIDKTLSKRTISTVNVQLKCSVVILNLQSLVDQRSASIIWPSLKSRKIVLSAPKQIQNEEITAKLIKKNIEVVNMPLNKIVEFSTTIKTLDISIDSNLDNLLKWQRISDSYTVATVVGRLVKESLPQVNNHQKTASRSKLVLKPLHGSSRSHKTGALSIGDVRLAQLKKLLTEKNYIAEFKGEGTLVINEKVAVRKINDAETIIDGTPSELFDTVKKLVTDMLAKI
In the case of B4, the binding result in assay [2] is on record as “binds”.
